Results published in the supplement of paper PMC10849652.
The list shows a part of the results.

Amino acid sequences for entries named in this document (tags omitted). A change or cut given only in a name is not applied to a line headed by its entry.
UniProt Q9BTE6: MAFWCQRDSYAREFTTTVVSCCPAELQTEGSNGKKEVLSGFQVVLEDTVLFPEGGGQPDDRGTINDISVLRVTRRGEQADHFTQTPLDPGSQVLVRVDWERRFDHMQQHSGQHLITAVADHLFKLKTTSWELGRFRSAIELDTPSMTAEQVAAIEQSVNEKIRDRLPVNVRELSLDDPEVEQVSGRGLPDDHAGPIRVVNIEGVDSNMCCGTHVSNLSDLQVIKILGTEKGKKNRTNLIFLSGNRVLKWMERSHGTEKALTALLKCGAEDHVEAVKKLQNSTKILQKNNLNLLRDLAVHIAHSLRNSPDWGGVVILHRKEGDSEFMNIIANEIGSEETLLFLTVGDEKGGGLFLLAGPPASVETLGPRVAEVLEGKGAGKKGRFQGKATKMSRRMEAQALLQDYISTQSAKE
UniProt Q5T3U5: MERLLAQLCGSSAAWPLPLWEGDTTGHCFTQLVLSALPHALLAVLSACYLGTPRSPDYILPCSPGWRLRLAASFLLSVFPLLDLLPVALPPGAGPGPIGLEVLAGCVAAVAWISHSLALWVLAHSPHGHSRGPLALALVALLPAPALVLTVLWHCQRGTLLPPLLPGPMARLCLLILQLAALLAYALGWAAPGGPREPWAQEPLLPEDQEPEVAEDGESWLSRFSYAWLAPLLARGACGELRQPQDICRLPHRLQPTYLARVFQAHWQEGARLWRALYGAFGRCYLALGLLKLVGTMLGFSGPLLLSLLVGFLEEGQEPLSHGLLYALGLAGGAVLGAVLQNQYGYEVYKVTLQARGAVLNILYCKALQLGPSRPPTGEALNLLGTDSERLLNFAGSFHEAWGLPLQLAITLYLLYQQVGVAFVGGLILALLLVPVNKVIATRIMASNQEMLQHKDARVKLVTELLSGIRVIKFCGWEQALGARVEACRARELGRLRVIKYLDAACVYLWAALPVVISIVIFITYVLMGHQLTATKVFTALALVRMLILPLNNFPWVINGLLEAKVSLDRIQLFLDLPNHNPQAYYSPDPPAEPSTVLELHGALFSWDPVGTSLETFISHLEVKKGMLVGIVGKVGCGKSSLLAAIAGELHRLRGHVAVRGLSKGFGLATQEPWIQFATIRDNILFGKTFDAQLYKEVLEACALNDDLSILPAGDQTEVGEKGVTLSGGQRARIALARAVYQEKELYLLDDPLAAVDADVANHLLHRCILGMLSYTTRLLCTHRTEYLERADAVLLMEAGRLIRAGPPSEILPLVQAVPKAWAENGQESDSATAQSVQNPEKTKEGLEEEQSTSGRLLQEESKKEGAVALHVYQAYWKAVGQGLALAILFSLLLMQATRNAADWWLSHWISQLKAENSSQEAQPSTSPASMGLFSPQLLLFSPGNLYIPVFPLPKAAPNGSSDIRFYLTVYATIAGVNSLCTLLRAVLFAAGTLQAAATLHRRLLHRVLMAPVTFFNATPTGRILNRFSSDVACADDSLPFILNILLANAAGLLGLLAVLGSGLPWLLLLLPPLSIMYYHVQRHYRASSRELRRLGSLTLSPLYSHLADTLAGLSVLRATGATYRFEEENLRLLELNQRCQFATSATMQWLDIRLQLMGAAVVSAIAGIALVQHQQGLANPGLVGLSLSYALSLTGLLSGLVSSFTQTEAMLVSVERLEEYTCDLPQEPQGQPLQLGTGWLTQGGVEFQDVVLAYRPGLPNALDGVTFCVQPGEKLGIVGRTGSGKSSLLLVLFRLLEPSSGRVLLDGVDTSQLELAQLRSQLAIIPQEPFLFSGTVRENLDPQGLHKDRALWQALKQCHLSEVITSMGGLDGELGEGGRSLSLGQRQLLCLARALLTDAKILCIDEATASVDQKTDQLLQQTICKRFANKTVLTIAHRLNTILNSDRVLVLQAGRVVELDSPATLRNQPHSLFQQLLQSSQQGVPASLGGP
A0A494C071, A0A494C071, UniProt A0A494C071, whole entry, looked up: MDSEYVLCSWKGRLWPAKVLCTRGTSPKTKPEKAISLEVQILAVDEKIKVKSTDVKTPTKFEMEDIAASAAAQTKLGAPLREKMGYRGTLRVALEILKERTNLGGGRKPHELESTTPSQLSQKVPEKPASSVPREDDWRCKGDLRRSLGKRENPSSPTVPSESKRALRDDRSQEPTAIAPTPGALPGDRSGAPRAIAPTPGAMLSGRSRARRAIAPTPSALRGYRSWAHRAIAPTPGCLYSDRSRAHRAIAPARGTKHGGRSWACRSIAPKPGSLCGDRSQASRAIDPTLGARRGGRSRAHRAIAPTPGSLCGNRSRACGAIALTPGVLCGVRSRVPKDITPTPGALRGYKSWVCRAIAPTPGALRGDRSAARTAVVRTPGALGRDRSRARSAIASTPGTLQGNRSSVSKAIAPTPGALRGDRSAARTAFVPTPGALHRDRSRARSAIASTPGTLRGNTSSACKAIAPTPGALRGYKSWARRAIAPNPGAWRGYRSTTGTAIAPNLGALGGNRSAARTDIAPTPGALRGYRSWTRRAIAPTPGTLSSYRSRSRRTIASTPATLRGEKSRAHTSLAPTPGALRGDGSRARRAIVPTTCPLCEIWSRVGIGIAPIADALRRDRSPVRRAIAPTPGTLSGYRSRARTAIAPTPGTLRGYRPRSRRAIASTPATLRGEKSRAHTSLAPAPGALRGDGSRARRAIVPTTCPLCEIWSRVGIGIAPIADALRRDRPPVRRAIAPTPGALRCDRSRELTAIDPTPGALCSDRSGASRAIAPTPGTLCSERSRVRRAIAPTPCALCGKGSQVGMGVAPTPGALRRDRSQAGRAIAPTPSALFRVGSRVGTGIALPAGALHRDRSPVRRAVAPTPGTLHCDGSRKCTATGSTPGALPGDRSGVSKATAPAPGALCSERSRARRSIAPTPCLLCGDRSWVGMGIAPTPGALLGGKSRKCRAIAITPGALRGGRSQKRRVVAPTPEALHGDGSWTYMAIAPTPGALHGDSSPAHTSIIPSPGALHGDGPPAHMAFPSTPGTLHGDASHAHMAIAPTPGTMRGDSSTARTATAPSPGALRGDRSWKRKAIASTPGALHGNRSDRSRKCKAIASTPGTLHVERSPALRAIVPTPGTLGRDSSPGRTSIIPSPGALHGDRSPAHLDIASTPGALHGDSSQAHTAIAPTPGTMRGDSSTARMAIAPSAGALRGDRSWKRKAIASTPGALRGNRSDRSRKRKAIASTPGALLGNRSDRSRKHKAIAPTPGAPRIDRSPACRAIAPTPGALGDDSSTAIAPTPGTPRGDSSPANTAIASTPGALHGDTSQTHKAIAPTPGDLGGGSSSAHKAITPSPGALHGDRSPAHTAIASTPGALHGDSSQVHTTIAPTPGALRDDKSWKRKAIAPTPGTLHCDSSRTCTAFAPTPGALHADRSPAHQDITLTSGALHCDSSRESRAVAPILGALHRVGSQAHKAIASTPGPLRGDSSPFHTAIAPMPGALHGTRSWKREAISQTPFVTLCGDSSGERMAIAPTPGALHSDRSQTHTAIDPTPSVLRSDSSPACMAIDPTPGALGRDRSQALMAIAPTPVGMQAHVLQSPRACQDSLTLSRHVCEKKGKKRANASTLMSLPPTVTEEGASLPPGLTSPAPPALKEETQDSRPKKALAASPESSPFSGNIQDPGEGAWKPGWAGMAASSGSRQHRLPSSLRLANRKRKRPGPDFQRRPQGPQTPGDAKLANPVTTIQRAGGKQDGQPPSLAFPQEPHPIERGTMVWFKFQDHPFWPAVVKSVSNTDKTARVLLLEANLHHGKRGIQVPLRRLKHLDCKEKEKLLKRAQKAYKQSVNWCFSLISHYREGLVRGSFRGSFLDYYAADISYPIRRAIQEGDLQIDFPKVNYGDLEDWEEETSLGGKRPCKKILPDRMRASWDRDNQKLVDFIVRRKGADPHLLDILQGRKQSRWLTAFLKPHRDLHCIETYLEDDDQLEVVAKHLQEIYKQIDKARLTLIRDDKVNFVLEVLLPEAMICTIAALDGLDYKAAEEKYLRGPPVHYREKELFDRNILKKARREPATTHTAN
UniProt Q8N6N7: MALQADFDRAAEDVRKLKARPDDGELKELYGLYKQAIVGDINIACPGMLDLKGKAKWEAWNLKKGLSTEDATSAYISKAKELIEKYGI
UniProt Q9P1F3: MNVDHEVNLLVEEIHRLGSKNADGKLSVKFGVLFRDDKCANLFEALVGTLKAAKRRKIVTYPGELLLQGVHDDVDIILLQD
UniProt Q8TB40: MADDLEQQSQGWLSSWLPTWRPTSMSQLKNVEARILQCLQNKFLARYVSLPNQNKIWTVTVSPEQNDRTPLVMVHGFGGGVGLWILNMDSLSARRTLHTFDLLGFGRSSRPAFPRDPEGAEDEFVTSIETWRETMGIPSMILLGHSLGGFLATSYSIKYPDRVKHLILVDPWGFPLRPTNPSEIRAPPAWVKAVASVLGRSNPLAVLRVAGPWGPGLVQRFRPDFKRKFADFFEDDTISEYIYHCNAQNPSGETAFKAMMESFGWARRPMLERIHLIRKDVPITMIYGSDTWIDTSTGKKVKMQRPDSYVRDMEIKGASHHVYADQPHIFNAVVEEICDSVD
UniProt Q8WU67: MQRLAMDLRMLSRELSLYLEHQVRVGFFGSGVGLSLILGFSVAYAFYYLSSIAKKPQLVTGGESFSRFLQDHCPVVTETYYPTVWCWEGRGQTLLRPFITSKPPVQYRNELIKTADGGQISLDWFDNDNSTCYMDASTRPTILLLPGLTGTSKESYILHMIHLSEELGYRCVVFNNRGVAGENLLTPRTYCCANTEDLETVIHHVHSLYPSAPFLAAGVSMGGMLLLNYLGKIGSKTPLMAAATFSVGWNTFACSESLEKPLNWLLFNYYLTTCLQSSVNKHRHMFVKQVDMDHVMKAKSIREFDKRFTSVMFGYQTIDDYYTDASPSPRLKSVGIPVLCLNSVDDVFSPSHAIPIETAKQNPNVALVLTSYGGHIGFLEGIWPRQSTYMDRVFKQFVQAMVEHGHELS
UniProt Q8IZP0: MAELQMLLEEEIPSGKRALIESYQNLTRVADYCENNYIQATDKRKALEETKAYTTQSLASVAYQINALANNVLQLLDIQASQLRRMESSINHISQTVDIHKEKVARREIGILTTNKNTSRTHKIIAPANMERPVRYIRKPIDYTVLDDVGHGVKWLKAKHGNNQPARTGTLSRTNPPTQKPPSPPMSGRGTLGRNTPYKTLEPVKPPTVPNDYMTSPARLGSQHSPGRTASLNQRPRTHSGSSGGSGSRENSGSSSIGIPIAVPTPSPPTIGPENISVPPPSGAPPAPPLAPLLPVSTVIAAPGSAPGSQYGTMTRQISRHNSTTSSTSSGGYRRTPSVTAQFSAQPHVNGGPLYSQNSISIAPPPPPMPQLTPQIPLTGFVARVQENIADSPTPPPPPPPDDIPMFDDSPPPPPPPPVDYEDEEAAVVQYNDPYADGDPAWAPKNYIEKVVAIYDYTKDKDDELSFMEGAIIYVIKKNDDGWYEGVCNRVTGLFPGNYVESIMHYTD
UniProt Q9NUQ8: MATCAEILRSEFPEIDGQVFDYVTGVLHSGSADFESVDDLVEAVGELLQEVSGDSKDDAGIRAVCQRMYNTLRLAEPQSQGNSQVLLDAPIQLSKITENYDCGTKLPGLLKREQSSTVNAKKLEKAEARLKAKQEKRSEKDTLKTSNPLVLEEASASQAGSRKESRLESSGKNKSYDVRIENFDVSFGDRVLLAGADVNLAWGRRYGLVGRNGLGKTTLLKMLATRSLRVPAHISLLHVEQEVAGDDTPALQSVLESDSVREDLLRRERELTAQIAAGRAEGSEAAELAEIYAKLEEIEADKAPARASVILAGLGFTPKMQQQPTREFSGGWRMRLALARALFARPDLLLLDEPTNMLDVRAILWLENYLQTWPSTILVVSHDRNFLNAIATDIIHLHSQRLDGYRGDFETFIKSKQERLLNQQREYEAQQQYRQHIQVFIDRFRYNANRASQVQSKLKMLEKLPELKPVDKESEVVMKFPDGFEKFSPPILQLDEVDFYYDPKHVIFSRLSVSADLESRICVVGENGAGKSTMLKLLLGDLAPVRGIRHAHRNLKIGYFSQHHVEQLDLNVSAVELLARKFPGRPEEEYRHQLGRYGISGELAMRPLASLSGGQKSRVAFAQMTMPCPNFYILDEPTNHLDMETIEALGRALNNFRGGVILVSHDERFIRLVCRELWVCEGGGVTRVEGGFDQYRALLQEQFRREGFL
UniProt Q9UKU7: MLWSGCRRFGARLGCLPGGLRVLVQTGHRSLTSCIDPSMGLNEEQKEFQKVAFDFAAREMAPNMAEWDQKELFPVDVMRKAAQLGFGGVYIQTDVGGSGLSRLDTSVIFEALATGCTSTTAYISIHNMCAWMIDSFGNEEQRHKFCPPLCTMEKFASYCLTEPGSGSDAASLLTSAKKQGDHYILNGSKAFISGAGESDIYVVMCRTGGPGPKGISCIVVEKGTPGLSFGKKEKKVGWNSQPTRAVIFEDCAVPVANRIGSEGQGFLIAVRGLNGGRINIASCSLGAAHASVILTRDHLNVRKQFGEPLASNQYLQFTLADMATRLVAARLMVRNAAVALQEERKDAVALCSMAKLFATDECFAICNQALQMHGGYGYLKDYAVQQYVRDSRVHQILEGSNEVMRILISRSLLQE

Legend:
Assay in all cases: log2 fold change, soluble protein after heating vs DMSO (PISA); higher = thermal stabilisation; K562 lysate, 10 uM; active = over 0.2 and 3.5 SD of the protein, either way, in both replicates (recomputed)
ibrutinib = compound: C=CC(=O)N1CCC[C@@H](n2nc(-c3ccc(Oc4ccccc4)cc3)c3c(N)ncnc32)C1 [ibrutinib]
Summary of the method: (§1)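 Pellets of K562 cells were dounce-homogenised in PBS pH 7.4 with 1 mM MgCl2, and the crude extract was held at 1 mg/mL protein for a 30 min treatment with 10 μM compound. Aliquots were heated for 3 min over 48°C-58°C and pooled before NP-40 was added to 0.5% at 4°C. The supernatant from 21,000xg for 90 min was quantified by TMTpro 16plex LC-MS/MS with channel sums equalised. Values are reported from duplicates as log-two fold change in thermal stability relative to solvent controls.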

[1] = compound: CC(=O)c1cnc2ccc(-c3cc(Cl)c(O)c(Cl)c3)nc2c1N[C@H]1CC[C@H](CN(C)C)CC1
Summary of the method: as §1

ralimetinib = compound: CC(C)(C)Cn1c(N)nc2ccc(-c3[nH]c(C(C)(C)C)nc3-c3ccc(F)cc3)nc21 [ralimetinib]
Summary of the method: as §1

[2] = compound: CC(C)(O)CC(=O)NCCn1ccc2ncnc(Nc3ccc(Oc4cccc(C(F)(F)F)c4)c(Cl)c3)c21
Summary of the method: as §1

[3] = compound: CC(C)C1=C2N=C(C=C(N2N=C1)NCC3=CC=CC=C3)NCCCCCCN
Summary of the method: as §1

[4] = compound: CC1=C(C(CC(=O)N1)C2=CC=C(C=C2)C(F)(F)F)C(=O)NC3=C(C=C4C(=C3)C=NN4)F
Summary of the method: as §1

[5] = compound: CC1=C(C2=C(C=C1)C(=O)C3=CC=CC=C3N2CCCN)C
Summary of the method: as §1

[6] = compound: CC1=C(C=C(C=C1)NC(=O)C2=CC(=CC=C2)C(C)(C)C#N)NC3=CC4=C(C=C3)N=CN(C4=O)C
Summary of the method: as §1

[7] = compound: CC1=C(C=C(C=C1)NC(=O)C2=CC(=CC=C2)N(C)C)NC(=O)C3=CC=C(C=C3)O
Summary of the method: as §1

[8] = compound: CC1=CC=C(C=C1)SC2=C3C=C(SC3=CN=C2)C(=O)N
Summary of the method: as §1

Measured: log2 fold change

AAK1 (UniProt Q2M2I8)
inactive: ibrutinib -0.025 | [1] 0.426 | ralimetinib 0.009 | [2] -0.045 | [3] 0.023 | [4] -0.021 | [5] -0.011 | [6] -0.002 | [7] -0.026 | [8] 0.039

AAAS (UniProt Q9NRG9)
inactive: ibrutinib -0.027 | [1] 0.022 | ralimetinib 0.007 | [2] 0.024 | [3] -0.004 | [4] -0.012 | [5] -0.009 | [6] -0.031 | [7] 0.023 | [8] -0.001

ACADSB (UniProt P45954)
inactive: ibrutinib 0.003 | [1] 0.015 | ralimetinib -0.061 | [2] -0.074 | [3] -0.092 | [4] -0.005 | [5] -0.242 | [6] 0.005 | [7] 0.019 | [8] -0.023

ABHD12 isoform 2 (UniProt Q8N2K0)
inactive: ibrutinib -0.039 | [1] -0.03 | ralimetinib 0.043 | [2] -0.014 | [3] 0.05 | [4] 0.052 | [5] 0.021 | [6] 0.022 | [7] -0.05 | [8] 0.033

ABHD5 (UniProt Q8WTS1)
inactive: ibrutinib -0.028 | [1] 0.049 | ralimetinib -0.013 | [2] -0.072 | [3] 0.032 | [4] 0.037 | [5] -0.026 | [6] 0.029 | [7] 0.01 | [8] -0.034

AARSD1 (UniProt Q9BTE6)
inactive: ibrutinib -0.017 | [1] 0.02 | [4] -0.092 | [5] -0.18 | [8] -0.102

ABCC10 (UniProt Q5T3U5)
inactive: ralimetinib 0.066 | [2] 0.006 | [3] -0.05 | [4] -0.074 | [5] -0.166 | [7] 0.052

A2ML1 (UniProt A8K2U0)
inactive: ibrutinib -0.124 | [1] -0.018 | ralimetinib -0.256 | [2] 0.514 | [3] -0.034 | [6] 0.051 | [7] 0.099 | [8] 0.112

ACO1 (UniProt P21399)
inactive: ibrutinib 0 | [1] -0.012 | ralimetinib 0.023 | [2] 0.019 | [3] -0.024 | [4] -0.014 | [5] 0.017 | [6] -0.024 | [7] -0.025 | [8] 0.003

A0A494C071, A0A494C071
inactive: ibrutinib -0.023 | [5] -0.198

ABCA8 isoform 3 (UniProt O94911)
inactive: [1] -0.008 | [3] 0.044 | [6] -0.016 | [8] -0.344

ACBD7 (UniProt Q8N6N7)
inactive: [1] 0.041 | [3] 0.016 | [5] -0.058 | [8] -0.076

ABRACL (UniProt Q9P1F3)
inactive: ibrutinib 0.109 | [1] -0.179 | [3] 0.001 | [4] -0.112 | [5] 0.142 | [6] 0.051 | [8] 0.015

ABHD4 (UniProt Q8TB40)
inactive: [4] -0.015

ABHD3 (UniProt Q8WU67)
inactive: ralimetinib -0.049 | [2] -0.164 | [7] 0.107

ABHD15 (UniProt Q6UXT9)
inactive: [1] -0.005 | ralimetinib -0.005 | [2] -0.163 | [3] -0.006 | [7] 0.002 | [8] 0.004

A0A494C100, A0A494C100
inactive: ibrutinib -0.079 | [5] -0.298

ABHD18 (UniProt Q0P651)
inactive: [3] -0.19 | [4] 0.115

ABI1 isoform 6 (UniProt Q8IZP0)
inactive: [1] -0.034 | [8] -0.028

ABCE1 (UniProt H0Y990)
inactive: ibrutinib 0.078 | ralimetinib -0.159 | [2] -0.206 | [3] -0.092 | [6] 0.107 | [7] 0.01

ACAP3 (UniProt Q96P50)
inactive: ibrutinib -0.025 | [1] -0.005 | ralimetinib 0.101 | [2] -0.092 | [4] 0.064 | [5] -0.16 | [7] 0.002 | [8] -0.128

ABCA7 (UniProt Q8IZY2)
inactive: [5] -0.011 | [6] 0.051

ABCF3 (UniProt Q9NUQ8)
inactive: ibrutinib 0.008 | [1] 0.035 | ralimetinib 0.067 | [2] 0.046 | [3] -0.013 | [4] 0.009 | [5] -0.012 | [6] -0.02 | [7] 0.018 | [8] 0.001

ACLY isoform 2 (UniProt P53396)
inactive: ibrutinib -0.015 | [1] 0.028 | ralimetinib -0.022 | [2] 0.07 | [4] 0.008 | [6] 0.018 | [7] -0.008 | [8] -0.01

ACAP1 (UniProt Q15027)
inactive: [6] 0.053

ACAD8 (UniProt Q9UKU7)
inactive: ibrutinib 0.11 | [1] 0.065 | [5] -0.061 | [6] 0.038 | [8] -0.109

ACAD10 isoform 5 (UniProt Q6JQN1)
inactive: [1] -0.117 | ralimetinib -0.026 | [2] 0.013 | [3] -0.038 | [4] 0.496 | [5] -0.033 | [6] 0.094 | [7] 0.025 | [8] -0.181

ABCA3 (UniProt Q99758)
inactive: ibrutinib -0.036 | [1] -0.002 | ralimetinib -0.041 | [2] -0.13 | [3] -0.023 | [5] -0.112 | [6] 0.062 | [7] -0.028 | [8] 0.128

ACE (UniProt P12821)
inactive: [1] -0.014 | [3] 0.051 | [8] 0.016

ABCC5 (UniProt O15440)
inactive: ibrutinib -0.109 | [1] 0.012 | ralimetinib -0.216 | [2] -0.145 | [3] -0.015 | [5] -0.094 | [6] 0.019 | [7] 0.187 | [8] -0.019

ABTB2 (UniProt Q8N961)
inactive: ibrutinib -0.056 | ralimetinib -0.016 | [2] -0.458 | [7] 0.018

ACAT1, A0A5F9ZHJ0
inactive: ralimetinib 0.034 | [2] -0.129 | [4] -0.106 | [7] 0.013

ACD (UniProt Q96AP0)
inactive: ralimetinib -0.338 | [2] -0.009 | [6] -0.036 | [7] 0.053

ABCD4 (UniProt O14678)
inactive: [1] -0.083 | [3] 0.091 | [8] 0.063

2 successive entries out of the list so far:
ABCC5 (UniProt O15440)
inactive: ibrutinib -0.109 | [1] 0.012 | ralimetinib -0.216 | [2] -0.145 | [3] -0.015 | [5] -0.094 | [6] 0.019 | [7] 0.187 | [8] -0.019

ABTB2 (UniProt Q8N961)
inactive: ibrutinib -0.056 | ralimetinib -0.016 | [2] -0.458 | [7] 0.018

Further results follow:

AASDH (UniProt Q4L235)
inactive: ibrutinib -0.034 | [1] -0.109 | ralimetinib 0.039 | [2] -0.041 | [3] 0.351 | [4] -0.044 | [5] -0.016 | [7] -0.052 | [8] -0.027

ACBD5 (UniProt Q5T8D3)
inactive: [1] -0.144 | ralimetinib -0.052 | [2] 0.091 | [3] 0.048 | [5] 0.105 | [7] 0.061 | [8] 0.33

ABCC3 isoform 4 (UniProt O15438)
inactive: [1] 0.083 | ralimetinib 0.066 | [2] 0.042 | [5] 0.063 | [6] 0.01 | [7] 0.006 | [8] -0.068

ABHD13 (UniProt Q7L211)
inactive: ibrutinib 0.041 | [1] -0.017 | [4] -0.028 | [5] 0.196 | [6] 0.03 | [8] 0.003
